From patent US20220074941A1, “HSP90 COMBINATION THERAPY” (Sloan-Kettering Institute for Cancer Research, priority 2011, published 2022)

What was measured:
[1] = tested on: Hsp90 complexes in K562 cell extract; test: Nano-LC-MS/MS of PU-beads pull-downs; type: binding; conditions: protein identified in PU-beads pull-down of K562 extract, QSTAR-Elite QTof MS
How it was run: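 Lysates pre-cleared overnight at 4 °C with control beads, then pulled down with PU-beads or control beads; eluted proteins (2% SDS boil) gel-separated and analysed by nano LC-MS/MS on a QTof. Mascot identification (p<0.05), spectral counts and sequence coverage evaluated in Scaffold.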

[2] = tested on: Hsp90 complexes in Mia-PaCa-2 cell extract; test: Nano-LC-MS/MS of PU-beads pull-downs; type: binding, human; conditions: protein identified in PU-beads pull-down of Mia-Paca 2 extract; QSTAR-Elite QTof MS
Protocol: Lysates prepared as mentioned above were first pre-cleaned by incubation with control beads overnight at 4° C. […] Beads were washed with lysis buffer, proteins eluted by boiling in 2% SDS, separated on a denaturing gel and Coomassie stained according to manufacturer's procedure (Biorad). […] Analyses of the batch purified pools were done using a QSTAR-Elite hybrid quadrupole time-of-flight mass spectrometer (QTof MS) (AB/MDS Sciex), equipped with a nano spray ion source. Peptide mixtures (in 20 μL) are loaded onto a trapping guard column (0.3×5-mm PepMap C18 100 cartridge from LC Packings) using an Eksigent nano MDLC system (Eksigent Technologies, Inc) at a flow rate of 20 μL/min. […] Electrospray ionization (ESI) needle voltage was set at about 1800 V. The mass analyzer is operated in automatic, data-dependent MS/MS acquisition mode, with the threshold set to 10 counts per second of doubly or triply charged precursor ions selected for fragmentation scans. Survey scans of 0.25 sec are recorded from 400 to 1800 amu; up to 3 MS/MS scans are then collected sequentially for the selected precursor ions, recording from 100 to 1800 amu. The collision energy is automatically adjusted in accordance with the m/z value of the precursor ions selected for MS/MS. Selected precursor ions are excluded from repeated selection for 60 sec after the end of the corresponding fragmentation duty cycle. […] One missed tryptic cleavage site was allowed, precursor ion mass tolerance=0.4 Da fragment ion mass tolerance=0.4 Da, protein modifications were allowed for Met-oxide, Cys-acrylamide and N-terminal acetylation. MudPit scoring was typically applied with ‘require bold red’ activated, and using significance threshold score p<0.05. Unique peptide counts (or ‘spectral counts’) and percent sequence coverages for all identified proteins were exported to Scaffold Proteome Software (version 2_06_01, www.proteomesoftware.com) for further bioinformatic analysis (Table 5a). Using output from Mascot, Scaffold validates, organizes, and interprets mass spectrometry data, allowing more easily to manage large amounts of data, to compare samples, and to search for protein modifications.

B1: PHKB (protein, UniProt Q93100 2-1093, looked up)
Phosphorylase b kinase …: AGAAGLTAEVSWKVLERRARTKRSGSVYEPLKSINLPRPDNETLWDKLDHYYRIVKSTLLLYQSPTTGLFPTKTCGGDQKAKIQDSLYCAAGAWALALAYRRIDDDKGRTHELEHSAIKCMRGILYCYMRQADKVQQFKQDPRPTTCLHSVFNVHTGDELLSYEEYGHLQINAVSLYLLYLVEMISSGLQIIYNTDEVSFIQNLVFCVERVYRVPDFGVWERGSKYNNGSTELHSSSVGLAKAALEAINGFNLFGNQGCSWSVIFVDLDAHNRNRQTLCSLLPRESRSHNTDAALLPCISYPAFALDDEVLFSQTLDKVVRKLKGKYGFKRFLRDGYRTSLEDPNRCYYKPAEIKLFDGIECEFPIFFLYMMIDGVFRGNPKQVQEYQDLLTPVLHHTTEGYPVVPKYYYVPADFVEYEKNNPGSQKRFPSNCGRDGKLFLWGQALYIIAKLLADELISPKDIDPVQRYVPLKDQRNVSMRFSNQGPLENDLVVHVALIAESQRLQVFLNTYGIQTQTPQQVEPIQIWPQQELVKAYLQLGINEKLGLSGRPDRPIGCLGTSKIYRILGKTVVCYPIIFDLSDFYMSQDVFLLIDDIKNALQFIKQYWKMHGRPLFLVLIREDNIRGSRFNPILDMLAALKKGIIGGVKVHVDRLQTLISGAVVEQLDFLRISDTEELPEFKSFEELEPPKHSKVKRQSSTPSAPELGQQPDVNISEWKDKPTHEILQKLNDCSCLASQAILLGILLKREGPNFITKEGTVSDHIERVYRRAGSQKLWLAVRYGAAFTQKFSSSIAPHITTFLVHGKQVTLGAFGHEEEVISNPLSPRVIQNIIYYKCNTHDEREAVIQQELVIHIGWIISNNPELFSGMLKIRIGWIIHAMEYELQIRGGDKPALDLYQLSPSEVKQLLLDILQPQQNGRCWLNRRQIDGSLNRTPTGFYDRVWQILERTPNGIIVAGKHLPQQPTLSDMTMYEMNFSLLVEDTLGNIDQPQYRQIVVELLMVVSIVLERNPELEFQDKVDLDRLVKEAFNEFQKDQSRLKEIEKQDDMTSFYNTPPLGKRGTCSYLTKAVMNLLLEGEVKPNNDDPCLIS
[1]
  Number of Assigned Spectra, K562 Prep 1: 10
  Number of Assigned Spectra, K562 Prep 2: 3
[2]
  Number of Assigned Spectra, Mia-Paca 2: 9

B2: PANK4 (protein, UniProt Q9NVE7 2-773, looked up)
4'-phosphopantetheine …: AECGASGSGSSGDSLDKSITLPPDEIFRNLENAKRFAIDIGGSLTKLAYYSTVQHKVAKVRSFDHSGKDTEREHEPPYEISVQEEITARLHFIKFENTYIEACLDFIKDHLVNTETKVIQATGGGAYKFKDLIEEKLRLKVDKEDVMTCLIKGCNFVLKNIPHEAFVYQKDSDPEFRFQTNHPHIFPYLLVNIGSGVSIVKVETEDRFEWVGGSSIGGGTFWGLGALLTKTKKFDELLHLASRGQHSNVDMLVRDVYGGAHQTLGLSGNLIASSFGKSATADQEFSKEDMAKSLLHMISNDIGQLACLHARLHSLDRVYFGGFFIRGHPVTMRTITYSINFFSKGEVQALFLRHEGYLGAIGAFLKGAEQDNPNQYSWGENYAGSSGLMSASPELGPAQRARSGTFDLLEMDRLERPLVDLPLLLDPPSYVPDTVDLTDDALARKYWLTCFEEALDGVVKRAVASQPDSVDAAERAEKFRQKYWNKLQTLRQQPFAYGTLTVRSLLDTREHCLNEFNFPDPYSKVKQRENGVALRCFPGVVRSLDALGWEERQLALVKGLLAGNVFDWGAKAVSAVLESDPYFGFEEAKRKLQERPWLVDSYSEWLQRLKGPPHKCALIFADNSGIDIILGVFPFVRELLLRGTEVILACNSGPALNDVTHSESLIVAERIAGMDPVVHSALQEERLLLVQTGSSSPCLDLSRLDKGLAALVRERGADLVVIEGMGRAVHTNYHAALRCESLKLAVIKNAWLAERLGGRLFSVIFKYEVPAE
[1]
  Number of Assigned Spectra, K562 Prep 1: 7
  Number of Assigned Spectra, K562 Prep 2: 7
[2]
  Number of Assigned Spectra, Mia-Paca 2: 0

B3: PRKAA1 (protein, UniProt Q13131 1-559, looked up)
5'-AMP-activated protein …: MRRLSSWRKMATAEKQKHDGRVKIGHYILGDTLGVGTFGKVKVGKHELTGHKVAVKILNRQKIRSLDVVGKIRREIQNLKLFRHPHIIKLYQVISTPSDIFMVMEYVSGGELFDYICKNGRLDEKESRRLFQQILSGVDYCHRHMVVHRDLKPENVLLDAHMNAKIADFGLSNMMSDGEFLRTSCGSPNYAAPEVISGRLYAGPEVDIWSSGVILYALLCGTLPFDDDHVPTLFKKICDGIFYTPQYLNPSVISLLKHMLQVDPMKRATIKDIREHEWFKQDLPKYLFPEDPSYSSTMIDDEALKEVCEKFECSEEEVLSCLYNRNHQDPLAVAYHLIIDNRRIMNEAKDFYLATSPPDSFLDDHHLTRPHPERVPFLVAETPRARHTLDELNPQKSKHQGVRKAKWHLGIRSQSRPNDIMAEVCRAIKQLDYEWKVVNPYYLRVRRKNPVTSTYSKMSLQLYQVDSRTYLLDFRSIDDEITEAKSGTATPQRSGSVSNYRSCQRSDSDAEAQGKSSEVSLTSSVTSLDSSPVDLTPRPGSHTIEFFEMCANLIKILAQ
[1]
  Number of Assigned Spectra, K562 Prep 1: 11
  Number of Assigned Spectra, K562 Prep 2: 6
[2]
  Number of Assigned Spectra, Mia-Paca 2: 1

B4: SCYL1 (protein, UniProt Q96KG9 1-808, looked up)
N-terminal kinase-like protein: MWFFARDPVRDFPFELIPEPPEGGLPGPWALHRGRKKATGSPVSIFVYDVKPGAEEQTQVAKAAFKRFKTLRHPNILAYIDGLETEKCLHVVTEAVTPLGIYLKARVEAGGLKELEISWGLHQIVKALSFLVNDCSLIHNNVCMAAVFVDRAGEWKLGGLDYMYSAQGNGGGPPRKGIPELEQYDPPELADSSGRVVREKWSADMWRLGCLIWEVFNGPLPRAAALRNPGKIPKTLVPHYCELVGANPKVRPNPARFLQNCRAPGGFMSNRFVETNLFLEEIQIKEPAEKQKFFQELSKSLDAFPEDFCRHKVLPQLLTAFEFGNAGAVVLTPLFKVGKFLSAEEYQQKIIPVVVKMFSSTDRAMRIRLLQQMEQFIQYLDEPTVNTQIFPHVVHGFLDTNPAIREQTVKSMLLLAPKLNEANLNVELMKHFARLQAKDEQGPIRCNTTVCLGKIGSYLSASTRHRVLTSAFSRATRDPFAPSRVAGVLGFAATHNLYSMNDCAQKILPVLCGLTVDPEKSVRDQAFKAIRSFLSKLESVSEDPTQLEEVEKDVHAASSPGMGGAAASWAGWAVTGVSSLTSKLIRSHPTTAPTETNIPQRPTPEGVPAPAPTPVPATPTTSGHWETQEEDKDTAEDSSTADRWDDEDWGSLEQEAESVLAQQDDWSTGGQVSRASQVSNSDHKSSKSPESDWSSWEAEGSWEQGWQEPSSQEPPPDGTRLASEYNWGGPESSDKGDPFATLSARPSTQPRPDSWGEDNWEGLETDSRQVKAELARKKREERRREMEAKRAERKVAKGPMKLGARKLD
[1]
  Number of Assigned Spectra, K562 Prep 1: 8
  Number of Assigned Spectra, K562 Prep 2: 2
[2]
  Number of Assigned Spectra, Mia-Paca 2: 0

B5: RIOK2 (protein, UniProt Q9BVS4 1-552, looked up)
Serine/threonine-protein …: MGKVNVAKLRYMSRDDFRVLTAVEMGMKNHEIVPGSLIASIASLKHGGCNKVLRELVKHKLIAWERTKTVQGYRLTNAGYDYLALKTLSSRQVVESVGNQMGVGKESDIYIVANEEGQQFALKLHRLGRTSFRNLKNKRDYHKHRHNVSWLYLSRLSAMKEFAYMKALYERKFPVPKPIDYNRHAVVMELINGYPLCQIHHVEDPASVYDEAMELIVKLANHGLIHGDFNEFNLILDESDHITMIDFPQMVSTSHPNAEWYFDRDVKCIKDFFMKRFSYESELFPTFKDIRREDTLDVEVSASGYTKEMQADDELLHPLGPDDKNIETKEGSEFSFSDGEVAEKAEVYGSENESERNCLEESEGCYCRSSGDPEQIKEDSLSEESADARSFEMTEFNQALEEIKGQVVENNSVTEFSEEKNRTENYNRQDGQRVQGGVPAGSDEYEDECPHLIALSSLNREFRPFRDEENVGAMNQYRTRTLSITSSGSAVSCSTIPPELVKQKVKRQLTKQQKSAVRRRLQKGEANIFTKQRRENMQNIKSSLEAASFWGE
[1]
  Number of Assigned Spectra, K562 Prep 1: 7
  Number of Assigned Spectra, K562 Prep 2: 6
[2]
  Number of Assigned Spectra, Mia-Paca 2: 1

B6: PRKD2 (protein)
chain: MATAPSYPAGLPGSPGPGSPPPPGGLELQSPPPLLPQIPAPGSGVSFHIQIGLTREFVLLPAASELAHVKQLACSIVDQKFPECGFYGLYDKILLFKHDPTSANLLQLVRSSGDIQEGDLVEVVLSASATFEDFQIRPHALTVHSYRAPAFCDHCGEMLFGLVRQGLKCDGCGLNYHKRCAFSIPNNCSGARKRRLSSTSLASGHSVRLGTSESLPCTAEELSRSTTELLPRRPPSSSSSSSASSYTGRPIELDKMLLSKVKVPHTFLIHSYTRPTVCQACKKLLKGLFRQGLQCKDCKFNCHKRCATRVPNDCLGEALINGDVPMEEATDFSEADKSALMDESEDSGVIPGSHSENALHASEEEEGEGGKAQSSLGYIPLMRVVQSVRHTTRKSSTTLREGWVVHYSNKDTLRKRHYWRLDCKCITLFQNNTTNRYYKEIPLSEILTVESAQNFSLVPPGTNPHCFEIVTANATYFVGEMPGGTPGGPSGQGAEAARGWETAIRQALMPVILQDAPSAPGHAPHRQASLSISVSNSQIQENVDIATVYQIFPDEVLGSGQFGVVYGGKHRKTGRDVAVKVIDKLRFPTKQESQLRNEVAILQSLRHPGIVNLECMFETPEKVFVVMEKLHGDMLEMILSSEKGRLPERLTKFLITQILVALRHLHFKNIVHCDLKPENVLLASADPFPQVKLCDFGFARIIGEKSFRRSVVGTPAYLAPEVLLNQGYNRSLDMWSVGVIMYVSLSGTFPFNEDEDINDQIQNAAFMYPASPWSHISAGAIDLINNLLQVKMRKRYSVDKSLSHPWLQEYQTWLDLRELEGKMGERYITHESDDARWEQFAAEHPLPGSGLPTDRDLGGACPPQDHDMQGLAERISVL
[1]
  Number of Assigned Spectra, K562 Prep 1: 4
  Number of Assigned Spectra, K562 Prep 2: 0
[2]
  Number of Assigned Spectra, Mia-Paca 2: 0
